Test results: the supplement of paper PMC4604168 (melanoma cell lines)
This is one part of the list. Repeats are few or missing, and single values can be far off.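 Imaging used 1,536-well plates; nuclei positive for cleaved PARP by antibody were divided by total DNA-stained nuclei to yield the apoptosis fraction. Doses for screening kept most cells viable, and cell lines differ markedly in resting and induced cleaved-PARP levels.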

Key:
Assay in all cases: cleaved PARP positive nuclei fraction relative to DMSO control; melanoma cells; higher = more apoptosis
Settings in all cases: library dose: low library concentration; 72 h
[1] = test system: 501Mel
[2] = test system: A101D
[3] = test system: A2058
[4] = test system: A375
[5] = test system: C32
[6] = test system: CBRC008 (line from a melanoma biopsy)
[7] = test system: CBRC014 (line from a melanoma biopsy)
[8] = test system: CBRC016 (line from a melanoma biopsy)
[9] = test system: CBRC017 (line from a melanoma biopsy)
[10] = test system: CBRC034 (line from a melanoma biopsy)
[11] = test system: COLO792
[12] = test system: COLO800
[13] = test system: COLO829
[14] = test system: G361
[15] = test system: IPC-298
[16] = test system: IST-MEL1
[17] = test system: LB2518-MEL
[18] = test system: LOXIMVI
[19] = test system: MEL-HO

## C[C@@H](Oc1cc(-c2cnn(C3CCNCC3)c2)cnc1N)c1c(Cl)ccc(F)c1Cl [Crizotinib] + Cn1nnc2c(C(N)=O)ncn2c1=O [temozolomide] (first compound 0.2 µM, partner dose 2 µM)
[1]
  cleaved PARP positive nuclei fraction: 84%
[2]
  cleaved PARP positive nuclei fraction: 96%
[3]
  cleaved PARP positive nuclei fraction: 140%
[4]
  cleaved PARP positive nuclei fraction: 136%
[5]
  cleaved PARP positive nuclei fraction: 71.6%
[6]
  cleaved PARP positive nuclei fraction: 111%
[7]
  cleaved PARP positive nuclei fraction: 95%
[8]
  cleaved PARP positive nuclei fraction: 123%
[9]
  cleaved PARP positive nuclei fraction: 122%
[10]
  cleaved PARP positive nuclei fraction: 55.8%
[11]
  cleaved PARP positive nuclei fraction: 224%
[12]
  cleaved PARP positive nuclei fraction: 136%
[13]
  cleaved PARP positive nuclei fraction: 70.7%
[14]
  cleaved PARP positive nuclei fraction: 164%
[15]
  cleaved PARP positive nuclei fraction: 217%
[16]
  cleaved PARP positive nuclei fraction: 85.2%
[17]
  cleaved PARP positive nuclei fraction: 129%
[18]
  cleaved PARP positive nuclei fraction: 248%
[19]
  cleaved PARP positive nuclei fraction: 187%

## C[C@@H](Oc1cc(-c2cnn(C3CCNCC3)c2)cnc1N)c1c(Cl)ccc(F)c1Cl [Crizotinib] + Nc1cccc2c1CN(C1CCC(=O)NC1=O)C2=O [lenalidomide] (first compound 0.2 µM, partner dose 1 µM)
[1]
  cleaved PARP positive nuclei fraction: 217%
[2]
  cleaved PARP positive nuclei fraction: 98%
[3]
  cleaved PARP positive nuclei fraction: 137%
[4]
  cleaved PARP positive nuclei fraction: 77.9%
[5]
  cleaved PARP positive nuclei fraction: 83.2%
[6]
  cleaved PARP positive nuclei fraction: 28.1%
[7]
  cleaved PARP positive nuclei fraction: 88.7%
[8]
  cleaved PARP positive nuclei fraction: 86.8%
[9]
  cleaved PARP positive nuclei fraction: 77.4%
[10]
  cleaved PARP positive nuclei fraction: 90.3%
[11]
  cleaved PARP positive nuclei fraction: 162%
[12]
  cleaved PARP positive nuclei fraction: 111%
[13]
  cleaved PARP positive nuclei fraction: 107%
[14]
  cleaved PARP positive nuclei fraction: 88.6%
[15]
  cleaved PARP positive nuclei fraction: 83.4%
[16]
  cleaved PARP positive nuclei fraction: 129%
[17]
  cleaved PARP positive nuclei fraction: 50.5%
[18]
  cleaved PARP positive nuclei fraction: 245%
[19]
  cleaved PARP positive nuclei fraction: 193%

## C[C@@H](Oc1cc(-c2cnn(C3CCNCC3)c2)cnc1N)c1c(Cl)ccc(F)c1Cl [Crizotinib] + CC(=O)c1c(C)c2cnc(Nc3ccc(N4CCNCC4)cn3)nc2n(C2CCCC2)c1=O [palbociclib] (first compound 0.2 µM, partner dose 0.04 µM)
[1]
  cleaved PARP positive nuclei fraction: 194%
[2]
  cleaved PARP positive nuclei fraction: 89.1%
[3]
  cleaved PARP positive nuclei fraction: 255%
[4]
  cleaved PARP positive nuclei fraction: 253%
[5]
  cleaved PARP positive nuclei fraction: 88.2%
[6]
  cleaved PARP positive nuclei fraction: 33.9%
[7]
  cleaved PARP positive nuclei fraction: 261%
[8]
  cleaved PARP positive nuclei fraction: 51.6%
[9]
  cleaved PARP positive nuclei fraction: 102%
[10]
  cleaved PARP positive nuclei fraction: 43.2%
[11]
  cleaved PARP positive nuclei fraction: 69.1%
[12]
  cleaved PARP positive nuclei fraction: 82.8%
[13]
  cleaved PARP positive nuclei fraction: 72.4%
[14]
  cleaved PARP positive nuclei fraction: 41.4%
[15]
  cleaved PARP positive nuclei fraction: 91.2%
[16]
  cleaved PARP positive nuclei fraction: 126%
[17]
  cleaved PARP positive nuclei fraction: 52.4%
[18]
  cleaved PARP positive nuclei fraction: 105%
[19]
  cleaved PARP positive nuclei fraction: 122%

## CS(=O)(=O)CCNCc1ccc(-c2ccc3ncnc(Nc4ccc(OCc5cccc(F)c5)c(Cl)c4)c3c2)o1 [lapatinib] + Cc1nc(Nc2ncc(C(=O)Nc3c(C)cccc3Cl)s2)cc(N2CCN(CCO)CC2)n1 [dasatanib] (first compound 0.8 µM, partner dose 0.004 µM)
[1]
  cleaved PARP positive nuclei fraction: 107%
[2]
  cleaved PARP positive nuclei fraction: 110%
[3]
  cleaved PARP positive nuclei fraction: 154%
[4]
  cleaved PARP positive nuclei fraction: 375%
[5]
  cleaved PARP positive nuclei fraction: 165%
[6]
  cleaved PARP positive nuclei fraction: 125%
[7]
  cleaved PARP positive nuclei fraction: 135%
[8]
  cleaved PARP positive nuclei fraction: 92.1%
[9]
  cleaved PARP positive nuclei fraction: 81.7%
[10]
  cleaved PARP positive nuclei fraction: 59.8%
[11]
  cleaved PARP positive nuclei fraction: 146%
[12]
  cleaved PARP positive nuclei fraction: 122%
[13]
  cleaved PARP positive nuclei fraction: 106%
[14]
  cleaved PARP positive nuclei fraction: 137%
[15]
  cleaved PARP positive nuclei fraction: 60.6%
[16]
  cleaved PARP positive nuclei fraction: 403%
[17]
  cleaved PARP positive nuclei fraction: 96.5%
[18]
  cleaved PARP positive nuclei fraction: 72.6%
[19]
  cleaved PARP positive nuclei fraction: 46.5%

## CCCS(=O)(=O)Nc1ccc(F)c(C(=O)c2c[nH]c3ncc(Cl)cc23)c1F + Cn1c(Nc2ccc(C(F)(F)F)cc2)nc2cc(Oc3ccnc(-c4ncc(C(F)(F)F)[nH]4)c3)ccc21 [CHIR265] (first compound 0.08 µM, partner dose 0.08 µM)
[1]
  cleaved PARP positive nuclei fraction: 74.8%
[2]
  cleaved PARP positive nuclei fraction: 300%
[3]
  cleaved PARP positive nuclei fraction: 152%
[4]
  cleaved PARP positive nuclei fraction: 454%
[5]
  cleaved PARP positive nuclei fraction: 89.5%
[6]
  cleaved PARP positive nuclei fraction: 130%
[7]
  cleaved PARP positive nuclei fraction: 111%
[8]
  cleaved PARP positive nuclei fraction: 112%
[9]
  cleaved PARP positive nuclei fraction: 104%
[10]
  cleaved PARP positive nuclei fraction: 71.9%
[11]
  cleaved PARP positive nuclei fraction: 158%
[12]
  cleaved PARP positive nuclei fraction: 55.9%
[13]
  cleaved PARP positive nuclei fraction: 99.9%
[14]
  cleaved PARP positive nuclei fraction: 163%
[15]
  cleaved PARP positive nuclei fraction: 178%
[16]
  cleaved PARP positive nuclei fraction: 72.5%
[17]
  cleaved PARP positive nuclei fraction: 74.6%
[18]
  cleaved PARP positive nuclei fraction: 37.5%
[19]
  cleaved PARP positive nuclei fraction: 101%

## Nc1ccn([C@@H]2O[C@H](CO)[C@@H](O)C2(F)F)c(=O)n1 [gemcitabine] + COCC[n+]1c2c(n(Cc3cnccn3)c1C)C(=O)c1ccccc1C2=O [YM155] (first compound 0.0004 µM, partner dose 0.0004 µM)
[1]
  cleaved PARP positive nuclei fraction: 107%
[2]
  cleaved PARP positive nuclei fraction: 49.1%
[3]
  cleaved PARP positive nuclei fraction: 115%
[4]
  cleaved PARP positive nuclei fraction: 123%
[5]
  cleaved PARP positive nuclei fraction: 135%
[6]
  cleaved PARP positive nuclei fraction: 118%
[7]
  cleaved PARP positive nuclei fraction: 164%
[8]
  cleaved PARP positive nuclei fraction: 167%
[9]
  cleaved PARP positive nuclei fraction: 161%
[10]
  cleaved PARP positive nuclei fraction: 85.8%
[11]
  cleaved PARP positive nuclei fraction: 91.5%
[12]
  cleaved PARP positive nuclei fraction: 39.6%
[13]
  cleaved PARP positive nuclei fraction: 82.6%
[14]
  cleaved PARP positive nuclei fraction: 189%
[15]
  cleaved PARP positive nuclei fraction: 56.3%
[16]
  cleaved PARP positive nuclei fraction: 90.2%
[17]
  cleaved PARP positive nuclei fraction: 114%
[18]
  cleaved PARP positive nuclei fraction: 37%
[19]
  cleaved PARP positive nuclei fraction: 78.4%

## C=C(c1ccc(C(=O)O)cc1)c1cc2c(cc1C)C(C)(C)CCC2(C)C [Bexarotene] + C=CCNC1=C2C[C@@H](C)C[C@H](OC)[C@H](O)[C@@H](C)/C=C(\C)[C@H](OC(N)=O)[C@@H](OC)/C=C\C=C(/C)C(=O)NC(=CC1=O)C2=O [Tanespimycin] (first compound 2 µM, partner dose 0.002 µM)
[1]
  cleaved PARP positive nuclei fraction: 75.3%
[2]
  cleaved PARP positive nuclei fraction: 109%
[3]
  cleaved PARP positive nuclei fraction: 101%
[4]
  cleaved PARP positive nuclei fraction: 64.2%
[5]
  cleaved PARP positive nuclei fraction: 71.7%
[6]
  cleaved PARP positive nuclei fraction: 219%
[7]
  cleaved PARP positive nuclei fraction: 115%
[8]
  cleaved PARP positive nuclei fraction: 136%
[9]
  cleaved PARP positive nuclei fraction: 120%
[10]
  cleaved PARP positive nuclei fraction: 68.7%
[11]
  cleaved PARP positive nuclei fraction: 133%
[12]
  cleaved PARP positive nuclei fraction: 81.3%
[13]
  cleaved PARP positive nuclei fraction: 100%
[14]
  cleaved PARP positive nuclei fraction: 126%
[15]
  cleaved PARP positive nuclei fraction: 89.2%
[16]
  cleaved PARP positive nuclei fraction: 65.4%
[17]
  cleaved PARP positive nuclei fraction: 175%
[18]
  cleaved PARP positive nuclei fraction: 44.8%
[19]
  cleaved PARP positive nuclei fraction: 111%
